Measurements as given in patent publication US12139480B2, “5-thiazolecarboxamide kinase inhibitor and uses thereof” (iOmx Therapeutics AG, priority 2018, dated 2024).

Test system: diverse set of 320 wild-type protein kinases
Assay: single-point (1 uM) inhibition assay (ProQinase Kinase Profiler), whole panel
Format: biochemical
Settings: 1 uM compound; for number of kinases inhibited by greater than 50% that retain more than 50% activity with the other compound: B3 versus A8

Row | Structure (SMILES) | number of kinases inhibited to less than 1% residual activity (320 kinases) | number of kinases inhibited, threshold of <5% residual activity (320 kinases) | number of kinases inhibited by greater than 50% that retain more than 50% activity with the other compound
1 | Cc1nc(Nc2ncc(C(=O)Nc3c(Cl)ccnc3C)s2)cc(N2CCN(CCO)CC2)n1 [Compound B3, N-(4-chloro-2-methylpyridin-3-yl)-2-((6-(4-(2-hydroxyethyl)piperazin-1-yl)-2-methylpyrimidin-4-yl)amino)thiazole-5-carboxamide] | 13 | 30 | one
2 | Cc1nc(Nc2ncc(C(=O)Nc3c(C)cccc3Cl)s2)cc(N2CCN(CCO)CC2)n1 [Compound A8, N-(2-chloro-6-methylphenyl)-2-((6-(4-(2-hydroxyethyl)piperazin-1-yl)-2-methylpyrimidin-4-yl)amino)thiazole-5-carboxamide, reference compound] |  |  | 9
